The text below walks through data of PubChem BioAssay AID445 (National Center for Advancing Translational Sciences (NCATS), 2006).

Broadly, the AC50 is the midpoint of the concentration-response curve, whichever way the signal moves.

Molecules are shown by their SMILES. Some of the results follow. These are further read-outs of the screen, such as a control signal, another cell line or another target. No call is given for them. The list favours compounds with an active or inconclusive main result. Words in brackets tell the shape of the fitted curve; partial curves, single points and poor fits give uncertain potencies.

This assay is described as follows: IkB Signaling. Particulars: ABC-DLBCL IkBa-CBG/CBR dual luciferase ratio (green luciferase fused to IkBa over red control in OCI-Ly3 lymphoma cells), 4 h; measured here: control luc red channel unless noted. In a few lines:
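Luminescence ratio of IκBα-fused green versus native red beetle luciferase in OCI-Ly3 cells, 4 h post-doxycycline with compound; red signal alone, scaled from basal (0%) to zero light (-100%), flagged nonspecific or cytotoxic effects.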
On to `COc1ccc2c(CNC3CCCCCC3)c(C(=O)O)n(Cc3ccc(C)cc3)c2c1`, for which the AC50 was 12.6 µM [falling, single point].
With `O=C(Cn1cc(SCc2ccc(F)cc2)c2ccccc21)N1CCCCC1`, the AC50 was 25.1 µM [falling, partial curve].
On to `CCCSc1oc(-c2cccs2)nc1S(=O)(=O)c1ccc(C)cc1`, for which the AC50 was 3.16 µM [falling, full curve, poor fit].
Take `COc1ccc(NC(=O)Cn2c(=O)n(CCCCCC(=O)NCc3ccc4c(c3)OCO4)c(=O)c3sccc32)cc1Cl`: the AC50 was 10 µM [falling, partial curve].
Regarding `O=C(Nc1cccc(C(=O)OCc2cc(=O)n3c4c(sc3n2)CCCC4)c1)c1ccc(Cl)cc1`, the AC50 is 2 µM [falling, partial curve].
`Cc1ccc(-c2nnn(CC(=O)Nc3cccc4cccnc34)n2)o1`: the AC50 is 25.1 µM [falling, partial curve].
The figure for `COc1ccc(Nc2ncc3c(n2)CCN(Cc2cccc(F)c2F)C3)c(OC)c1` is 25.1 µM [falling, partial curve, poor fit]; for `CCOC(=O)c1c(-c2ccc(C)o2)csc1NC(=O)CSc1nnnn1-c1ccccc1` it is 20 µM [rising, partial curve] [measured here: IkB-luc green channel].
Consider `Cc1ccc(C)c(NC(=O)c2cc(S(=O)(=O)N3CCN(c4cccc(Cl)c4)CC3)ccc2F)c1`, for which the AC50 is 3.16 µM [falling, full curve, poor fit].
For `Cc1c(C(=O)N2CCc3ccccc3C2)sc2nc(-c3ccccc3)cn12`, the AC50 was 15.8 µM [falling, partial curve].
For the molecule `Oc1c(C(c2ccccc2Cl)N2CCC(O)CC2)sc2nc(-c3ccco3)nn12` (centres undefined), the concentration at half-maximal activity (AC50) was 5.01 µM [rising, single point].
`C#CCNc1c(C)c(C)nc2ncnn12`: the AC50 was 200 nM [rising, full curve, poor fit] [measured here: IkB-luc green channel].
The figure for `O=C(Oc1ccccc1F)c1nc(SCc2ccccc2F)ncc1Cl` is 6.31 µM [rising, single point]; for `COc1ccccc1NC(=O)Cn1nc2c3cc(F)ccc3n(Cc3cccc(C)c3)cc-2c1=O` it is 7.94 µM [falling, partial curve]; for `O=C(/C=C/c1ccccc1)Nc1nc2n(n1)C(c1ccc(Cl)cc1)C=C(c1ccccc1)N2` (centres undefined) it is 25.1 µM [falling, single point].
With `O=C(CN1C(=O)C2(SCC(=O)N2c2cccc(F)c2)c2ccccc21)NCc1ccccc1Cl` (centres undefined), the AC50 was 15.8 µM [falling, partial curve].
For the molecule `CCc1nc2ccccc2n1CCCCOc1cccc(C)c1`, the AC50 is 15.8 µM [falling, partial curve].
As to `CCCOc1ccc(NC(=O)CC2C(=O)N(c3ccc(OC)cc3)C(=O)N2CCc2ccncc2)cc1` (centres undefined), the AC50 is 20 µM [falling, partial curve].
Turning to `CCOC(=O)c1cc(-c2ccccc2)n(CCCC(=O)Nc2cccc(C)c2)c1C`, the AC50 is 39.8 µM [falling, single point].
The figure for `CC(C)(C)c1ccc(S(=O)(=O)c2cnc(SCC(=O)Nc3ccc4c(c3)OCCO4)[nH]c2=O)cc1` is 12.6 µM [falling, partial curve]; for `CCn1ccc2cc(S(=O)(=O)N3CCC(C(=O)NCC(C)c4ccccc4)CC3)ccc21` (centres undefined) it is 2 µM [falling, full curve, poor fit]; for `COc1ccc(S(=O)(=O)Nc2cc(-c3cn4ccc(C)cc4n3)ccc2C)cc1OC` it is 20 µM [falling, single point].
Take `Cc1nnc2c3ccccc3nc(Nc3ccccc3C(=O)O)n12`: the AC50 is 39.8 µM [falling, single point].
With `O=C(CSc1nnc(Nc2ccccc2F)s1)NCc1ccco1`, the AC50 is 31.6 µM [falling, single point].
The figure for `O=C(COc1ccc(Cl)cc1)Nc1ccc2nc(SCC(=O)N3CCOCC3)sc2c1` is 12.6 µM [falling, partial curve]; for `Cc1ccc(-n2ncc(C(=O)NCc3ccccn3)c2C2CCN(C(=O)OC(C)(C)C)CC2)cc1C` it is 25.1 µM [falling, partial curve, poor fit]; for `O=C(Nc1ccc(C(F)(F)F)cc1)c1cc(S(=O)(=O)N2CCCc3ccccc32)ccc1F` it is 3.98 µM [falling, full curve].
In the case of `COc1cc(Cl)c(C)cc1NC(=O)c1cc2c(=O)oc3ccccc3c2s1`, the AC50 is 3.16 µM [falling, full curve].
For the molecule `CCn1cc(C(=O)N2CCN(c3cc(Cl)ccc3C)CC2)c(=O)c2cc(S(=O)(=O)N3CCCC3)ccc21`, the AC50 was 15.8 µM [falling, partial curve].
`Cc1nc2ccc(NC(=O)Nc3ccnc4cccnc34)cc2o1`: the concentration at half-maximal activity (AC50) was 3.98 µM [falling, partial curve].
The figure for `Cc1cc(C(=O)N2CCN(c3cccc(Cl)c3)CC2)c2c(C)nn(-c3ccccc3Cl)c2n1` is 15.8 µM [falling, partial curve].
Regarding `CCCSc1ncc(Cl)c(C(=O)N(Cc2ccccc2)c2ccc(OC)cc2)n1`, the AC50 is 25.1 µM [falling, single point].
In the case of `Cn1ccc2c(OCC(=O)Nc3ccc(OC(F)(F)F)cc3)cccc2c1=O` it was 3.16 µM [falling, single point].
Regarding `CC(=O)c1ccc(NS(=O)(=O)c2ccc(Br)s2)cc1`, the AC50 is 7.94 µM [falling, partial curve].
In the case of `Cc1cc(C)cc(C(=O)NCCc2csc(-c3ccc(C(F)(F)F)cc3)n2)c1`, the AC50 is 31.6 µM [falling, partial curve, poor fit].
Regarding `CCC(Sc1nnc2c(n1)[nH]c1ccccc12)C(=O)Nc1ccccc1OC` (centres undefined), the concentration at half-maximal activity (AC50) is 15.8 µM [falling, partial curve].
Turning to `CCc1ccccc1S(=O)(=O)Cc1ccc(C(=O)NCCc2ccc(C)cc2)o1`, the AC50 is 20 µM [falling, partial curve].
For `COc1ccc(NC(=O)c2ncn(-c3ccccc3)n2)cc1Cl`, the AC50 is 20 µM [falling, partial curve].
Regarding `CCOC(=O)c1c(-c2ccccc2)oc2ccc(O)c(CN3CCOCC3)c12`, the AC50 is 15.8 µM [falling, partial curve].
